Experimental data from the supplement of paper PMC12889115.
The other results are listed elsewhere or left out. These are raw signals, not scaled to a control.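 In the initial screen, polymyxin B was used at a concentration that permeabilizes Salmonella's outer membrane but not its inner membrane. Maximum growth was set by DMSO wells with or without polymyxin B. Since plates varied, data were ranked per plate, and compounds giving the lowest OD600 advanced as hits.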

Test system: Salmonella enterica serovar Typhimurium SL1344
Assay: bacterial growth OD600 after 18 h with compound and polymyxin B; higher = more bacterial growth (less inhibition)
Conditions: 50 µM, Mueller-Hinton broth

Compound | bacterial growth OD600 (polymyxin B 0.75 µg/mL) | bacterial growth OD600 (polymyxin B 1 µg/mL)
COc1ccc(N2C(=O)CN(Cc3c[nH]cn3)CC23CCCC3)cc1 | 0.79 | –
CN1CCC(N(C)C(=O)CCC2CCCN(Cc3ccccc3OC(F)F)C2)CC1 (configuration not stated) | – | 1.17
COc1ccc(CC2CN(C(=O)C3CCC3)CCO2)cc1 (configuration not stated) | 1.01 | –
CN(Cc1nccs1)C(=O)c1csc2nc(-c3ccc(C(F)(F)F)cc3)cn12 | – | 0.605
COC(=O)c1ccc(C(=O)N(C)CC2CCCN(CCc3ccccc3F)C2)cc1 (configuration not stated) | – | 1.2
O=C1N(Cc2ccc(F)c(F)c2)CCCC1(O)CN[C@H]1CC[C@H](O)CC1 (some centres not stated) | – | 0.907
Cc1oc(-c2cccc(F)c2F)nc1CN1CCCCC1CO (configuration not stated) | – | 0.924
c1ccc(Cc2noc(-c3ccc(N4CCCO4)nc3)n2)cc1 | 0.122 | –
COC(=O)[C@@H](NC1CCN(c2ccc(C(=O)NCCN3CCOCC3)cc2)CC1)c1ccccc1 | 0.875 | –
O=C(NC1Cc2ccccc2C1)C1CCC(=O)N(CCCc2ccccc2)C1 (configuration not stated) | – | 0.815
COc1ccc(CC2(CCC(=O)N(C)CCc3cnn(C)c3)CCC(=O)N2)c2ccccc12 (configuration not stated) | 0.78 | –
O=C(NCCc1cccnc1)c1ccc2oc(CCc3ccccc3)nc2c1 | 0.607 | –
Cc1csc(C(C)N(C)C(=O)CC2(c3cccc(C(F)(F)F)c3)CC(=O)N(C3CC3)C2=O)n1 (configuration not stated) | 0.781 | –
COc1ccc(-c2ccccc2NC(=O)C2CCCN2CCCC(F)(F)F)cc1 (configuration not stated) | – | 0
OCC1(CCOc2ccccc2)CCCN(Cc2ccoc2)C1 (configuration not stated) | – | 0.832
CN(C(=O)c1cccnc1)C(Cc1ccc(F)cc1F)C1CCN(C(=O)C2(C)CCCCC2)CC1 (configuration not stated) | 0.858 | –

Compound | bacterial growth OD600 (polymyxin B 0.75 µg/mL) | bacterial growth OD600 (polymyxin B 1 µg/mL)
Cn1ccnc1CNC1CC(=O)N(Cc2cccc3ccccc23)C1 (configuration not stated) | – | 0.931
O=C(CCc1nnc(C2(c3ccc(Cl)cc3)CCC2)o1)NC1CCOCC1 | 0.832 | –
C/C=C(\C)CN1CCCC(C(=O)Nc2ccc(-c3cscn3)cc2)C1 (configuration not stated) | – | 0.964
O=C(c1ccsc1)N1CCC2(CCCN(Cc3ccc(F)cc3)C2=O)C1 (configuration not stated) | – | 0.863
Cc1ccccc1Oc1ncccc1CNC(=O)Cc1n[nH]c2ccccc12 | – | 0.915
CSCCCN1CCCCC1C(=O)Nc1ccc(Oc2cccnc2)cc1 (configuration not stated) | – | 0.953
CCN1CCN(C2(C(=O)NCc3cc(F)ccc3C)Cc3ccccc3C2)CC1 | 0.666 | –
CN(CCc1cnn(C)c1)c1nncc(-c2ccc3ccccc3c2)n1 | 0.009 | –
O=C(NCCCn1nnc2ccccc21)c1cn(Cc2ccccc2F)nn1 | – | 0.931
CC(C)Nc1ccc(C(=O)N2CCC(CCn3cccn3)CC2)cn1 | 0.783 | –
CCNC(=O)c1cn(CC(C)C)cc(C(=O)NCc2ccccc2F)c1=O | 0.089 | –
COCCN1C(=O)CC(CC(=O)N(C)Cc2ccccc2C(F)(F)F)(c2ccccc2F)C1=O (configuration not stated) | 0.273 | –
O=C(NCc1ccsc1)C1CCCN(C2CCN(C(=O)C3CC3)CC2)C1 (configuration not stated) | 0.869 | –
CCN(C)c1ccc(C(=O)N2CCCN(c3ncccn3)CC2)cn1 | – | 0.867
CCCN1CCC(N2CCC(N3CCC(C(=O)NCc4cccnc4)CC3)CC2)CC1 | – | 1.1
c1cnc2c(CN3CCc4[nH]nc(-c5ccc6c(c5)OCO6)c4C3)cccc2c1 | 0.853 | –
